# From PubChem BioAssay AID330 (DTP/NCI, 2004)
# The list does not hold the whole screen: it is rich in T/C values a quarter to a half above the control, in often repeated tests (any T/C) and in doses without a T/C. Further doses and runs are listed elsewhere. T/C: endpoint of the treated group in % of that of the vehicle group. Some doses have a count of surviving animals in place of a T/C: the source holds a T/C of zero for them, seemingly a mark for toxic or unscored doses. Some doses without a T/C left all or most animals alive at the check, yet need not have been tolerated: survival well below the control is almost never listed, so the zero probably covers shortened survival too. Counts of survivors are from the toxicity check (mostly the fifth day) where no day follows; animals may have died later. Schedule codes are those of the source, read here as Q, the interval in days (D) or hours (H), X, the number of doses. Some entries were tested several times; their values stand side by side, smallest first. Some structures stand for samples that the source files as different forms (salt, stereo form or complex); doses refer to the form tested. Where survival is the endpoint, this PubChem deposit counts one and a half times the control or more as active, and values a quarter to a half above the control carry no call in these data; other NCI protocols may use other cut-offs. Some T/C values carry the count of animals alive at the toxicity check (mostly the fifth day); where none is given, no animal had died by that day.
# Test system: P388 leukemia ip, CD2F1 mice, survival T/C
# Experiment: NCI In Vivo Anticancer Drug Screen. Data for tumor model P388 Leukemia (intraperitoneal) in CD2F1 (CDF1) mice
# Settings: T/C endpoint: median survival time, higher T/C = longer survival
# [1] = dose: 100.0 mg/kg/injection, schedule: Q04DX003 (ip), vehicle: saline with Tween-80
# [2] = dose: 400.0 mg/kg/injection, schedule: Q04DX003 (ip), vehicle: saline with Tween-80
# [3] = dose: 200.0 mg/kg/injection, schedule: Q01DX005 (ip), vehicle: Klucel (hydroxypropylcellulose) (HPC)
# [4] = dose: 240.0 mg/kg/injection, schedule: Q01DX005 (ip), vehicle: saline
# [5] = dose: 50.0 mg/kg/injection, schedule: Q01DX009 (ip), vehicle: saline with Tween-80
# [6] = dose: 100.0 mg/kg/injection, schedule: Q01DX005 (ip), vehicle: saline with Tween-80
# [7] = dose: 100.0 mg/kg/injection, schedule: Q01DX009 (ip), vehicle: saline with Tween-80
# [8] = dose: 200.0 mg/kg/injection, schedule: Q01DX005 (ip), vehicle: saline with Tween-80
# [9] = dose: 200.0 mg/kg/injection, schedule: Q01DX009 (ip), vehicle: saline with Tween-80
# [10] = dose: 400.0 mg/kg/injection, schedule: Q01DX009 (ip), vehicle: saline with Tween-80
# [11] = dose: 25.0 mg/kg/injection, schedule: Q01DX009 (ip), vehicle: Klucel (hydroxypropylcellulose) (HPC)
# [12] = dose: 50.0 mg/kg/injection, schedule: Q01DX005 (ip), vehicle: Klucel (hydroxypropylcellulose) (HPC)
# [13] = dose: 100.0 mg/kg/injection, schedule: Q01DX005 (ip), vehicle: Klucel (hydroxypropylcellulose) (HPC)
smiles,measurement,setting,value
NNc1cnc2ccccc2n1,survivor count,"dose: 150.0 mg/kg/injection, schedule: Q01DX009 (ip), vehicle: suspension in saline",4 of 6
same,survivor count,"dose: 150.0 mg/kg/injection, schedule: Q04DX003 (ip), vehicle: saline",3 of 6 and 4 of 6
C/C(=N\N=C(\[Se])N1CCN(c2ccccn2)CC1)c1ccccn1,T/C,"dose: 50.0 mg/kg/injection, schedule: Q04DX003 (ip), vehicle: saline with Tween-80",126 % of control
same,T/C,[1],133 % of control [4 of 6 alive]
same,survivor count,[2],4 of 6
CN(C)c1ccc2ncc(C(N)=O)c(N)c2c1,survivor count,"dose: 60.0 mg/kg/injection, schedule: Q01DX005 (ip), vehicle: Klucel (hydroxypropylcellulose) (HPC)",2 of 6
same,survivor count,"dose: 120.0 mg/kg/injection, schedule: Q01DX005 (ip), vehicle: Klucel (hydroxypropylcellulose) (HPC)",0 of 6
same,survivor count,"dose: 240.0 mg/kg/injection, schedule: Q01DX005 (ip), vehicle: Klucel (hydroxypropylcellulose) (HPC)",0 of 6
CCC1(c2ccc(N)cc2)CCC(=O)NC1=O (centres undefined),survivor count,[3],3 of 6
CCN(CC)Cc1cc(Nc2cc(C)nc3ccc(N(C)C)cc23)ccc1O,survivor count,"dose: 120.0 mg/kg/injection, schedule: Q01DX005 (ip), vehicle: saline",6 of 6
same,survivor count,[4],0 of 6
COC1=CC2(C=CC1=O)CCC(=O)O2 (centres undefined),survivor count,"dose: 50.0 mg/kg/injection, schedule: Q01DX005 (ip), vehicle: saline with Tween-80",6 of 6
same,survivor count,[5],0 of 6
same,survivor count,[6],0 of 6
same,survivor count,[7],0 of 6
same,survivor count,[8],0 of 6 and 1 of 6
same,survivor count,[9],0 of 6
C1CCC2[N-]CCCC2C1.C1CCC2[N-]CCCC2C1.O=[N+]([O-])O.O=[N+]([O-])O.[Cu+2] (centres undefined),survivor count,"dose: 30.0 mg/kg/injection, schedule: Q01DX005 (ip), vehicle: saline with Tween-80",3 of 6
same,survivor count,"dose: 60.0 mg/kg/injection, schedule: Q01DX005 (ip), vehicle: saline with Tween-80",0 of 6
same,survivor count,"dose: 120.0 mg/kg/injection, schedule: Q01DX005 (ip), vehicle: saline with Tween-80",0 of 6
same,survivor count,"dose: 240.0 mg/kg/injection, schedule: Q01DX005 (ip), vehicle: saline with Tween-80",0 of 6
Cc1c2ccnc(C(N)=O)c2c(C)c2c1[nH]c1ccccc12,T/C,"dose: 200.0 mg/kg/injection, schedule: Q04DX002 (ip), vehicle: distilled water + Tween-80",126 % of control
same,T/C,"dose: 400.0 mg/kg/injection, schedule: Q04DX002 (ip), vehicle: distilled water + Tween-80",131 % of control
O=P(Oc1ccc(OP(=O)(N2CC2)N2CC2)cc1)(N1CC1)N1CC1,T/C,[1],129 % of control
same,survivor count,[10],6 of 6
same,survivor count,[2],6 of 6
same,survivor count,"dose: 600.0 mg/kg/injection, schedule: Q04DX003 (ip), vehicle: saline with Tween-80",3 of 6
O=c1ccc2ccccc2o1,survivor count,[11],6 of 6
same,T/C,[5],"103, 113, 178 % of control"
same,survivor count,[5],3 of 6
same,survivor count,[7],2 of 6
same,survivor count,"dose: 200.0 mg/kg/injection, schedule: Q01DX009 (ip), vehicle: Klucel (hydroxypropylcellulose) (HPC)",0 of 6
same,survivor count,[9],3 of 6
same,survivor count,"dose: 300.0 mg/kg/injection, schedule: Q01DX009 (ip), vehicle: Klucel (hydroxypropylcellulose) (HPC)",0 of 6
same,survivor count,[10],4 of 6
same,survivor count,"dose: 800.0 mg/kg/injection, schedule: Q01DX009 (ip), vehicle: saline with Tween-80",3 of 6
Cc1ccc(N)c(C(O)(C(F)(F)F)C(F)(F)F)c1,survivor count,"dose: 100.0 mg/kg/injection, schedule: Q04DX003 (ip), vehicle: Klucel (hydroxypropylcellulose) (HPC)",0 of 6
same,survivor count,[9],6 of 6
same,survivor count,"dose: 200.0 mg/kg/injection, schedule: Q04DX003 (ip), vehicle: Klucel (hydroxypropylcellulose) (HPC)",0 of 6
same,survivor count,"dose: 400.0 mg/kg/injection, schedule: Q04DX003 (ip), vehicle: Klucel (hydroxypropylcellulose) (HPC)",0 of 6
CN(C)CCNC1=CC(=O)c2ccccc2C1=O,survivor count,"dose: 200.0 mg/kg/injection, schedule: Q01DX009 (ip), vehicle: distilled water + Tween-80",3 of 6
Cc1c([N+](=O)[O-])cc(Br)c2ccccc12,survivor count,"dose: 200.0 mg/kg/injection, schedule: Q01DX009 (ip), vehicle: water",6 of 6
same,survivor count,"dose: 400.0 mg/kg/injection, schedule: Q01DX009 (ip), vehicle: water",6 of 6
O=[N+]([O-])[O][Sn]([O][Sn]([O][N+](=O)[O-])([c]1ccccc1)[c]1ccccc1)([c]1ccccc1)[c]1ccccc1,T/C,"dose: 3.12 mg/kg/injection, schedule: Q01DX005 (ip), vehicle: saline",125 % of control
same,T/C,"dose: 6.25 mg/kg/injection, schedule: Q01DX005 (ip), vehicle: saline",137 % of control
same,T/C,"dose: 12.5 mg/kg/injection, schedule: Q01DX005 (ip), vehicle: saline",138 % of control
same,survivor count,"dose: 25.0 mg/kg/injection, schedule: Q01DX005 (ip), vehicle: saline",3 of 6
same,survivor count,[12],2 of 6
same,survivor count,"dose: 50.0 mg/kg/injection, schedule: Q01DX005 (ip), vehicle: saline",1 of 6
same,survivor count,[13],0 of 6
same,survivor count,[3],0 of 6
Cn1cc(CCc2cc[n+](CCC[n+]3ccc(CCc4cn(C)c5ccccc45)cc3)cc2)c2ccccc21,survivor count,[11],4 of 6
same,survivor count,"dose: 50.0 mg/kg/injection, schedule: Q01DX009 (ip), vehicle: Klucel (hydroxypropylcellulose) (HPC)",0 of 6
N#CC(C(=O)O)C(c1c(Cl)cccc1Cl)C(C#N)C(=O)O (centres undefined),survivor count,[8],3 of 5
ClCC#CCCl,survivor count,"dose: 25.0 mg/kg/injection, schedule: Q01DX009 (ip), vehicle: saline with Tween-80",4 of 6
same,survivor count,[5],0 of 6
same,survivor count,[7],0 of 6
Cc1cc(C)cc(C(=O)NC(=C(NC(=O)c2cc(C)cc(C)c2)c2ccncc2)c2ccncc2)c1 (mixture of isomers),survivor count,[6],6 of 6
same,survivor count,[8],6 of 6
O=[N+]([O-])c1cc(Br)c2cccc3c2c1CC3,survivor count,[3],6 of 6
CC1=C(Br)C(c2ccccc2)=Nc2ccccc2N1,survivor count,[5],6 of 6
same,survivor count,"dose: 200.0 mg/kg/injection, schedule: Q01DX009 (ip), vehicle: saline",2 of 6
CCCCc1ccc2nc(C)cc(N/N=C/c3ccc(OC)c4ccccc34)c2c1,survivor count,[12],6 of 6
same,survivor count,[13],6 of 6
Cc1oc2ccccc2c(=O)c1CN(CCO)CCO,survivor count,[4],0 of 6
CC(OC1OC(C(=O)O)C(O)C(O)C1O)c1ccccc1 (centres undefined),survivor count,"dose: 100.0 mg/kg/injection, schedule: Q01DX009 (ip), vehicle: saline sonified",6 of 6
c1cnc2c(c1)C1OC(S2)c2cccnc2S1,survivor count,[9],0 of 6
O=c1[nH]cc(N(CCCl)CCCl)c(=O)[nH]1,T/C,"dose: 0.14 mg/kg/injection, schedule: Q01DX009 (ip), vehicle: saline with Tween-80",136 % of control
same,T/C,"dose: 0.23 mg/kg/injection, schedule: Q01DX009 (ip), vehicle: saline with Tween-80",145 % of control
